Experimental data as given in PubChem BioAssay AID540276 (National Center for Advancing Translational Sciences (NCATS), 2011).
Hit rate of the full screen: of about 300,000 compounds, about 5,400 (1.8%) were called active. Inconclusive results, whose numbers are uncertain, are shown with a selection of clear calls. The call rests on the fitted dose curve; tested in HEK293 cells. Potencies of inconclusive entries are doubtful fits and often do not repeat.

test: qHTS for inhibitors of binding or entry into cells for Marburg Virus; conditions: Marburg virus pseudotyped entry inhibition, cell reporter; activity change, negative = inhibition: at 37.8 µM (top of the series) unless noted
On the % scale 0 is the no-effect control and ±100 the full control effect; potency means the concentration at half of the fitted maximal effect.

Compound | Potency | activity change, negative = inhibition
CCN1C(=O)NC(c2cccc(F)c2)C(C(C)=O)=C1C (centres undefined) | inconclusive: 0.0033 µM [inhibitor, full curve, poor fit] | 
COC(=O)C1=C(C)NC(=O)NC1c1ccc(OC(=O)c2ccco2)cc1 (centres undefined) | inconclusive: 10 µM [activator, partial curve, poor fit] | 
COc1ccc(Cn2c(SCc3ccc(C(=O)NCCc4ccccc4)cc3)nc3cccnc32)cc1 | inconclusive: 11.2 µM [activator, single point] | 
O=C(c1cccs1)N1CCC(C(=O)N2CCN(Cc3ccc4c(c3)OCO4)CC2)CC1 | inconclusive: 11.2 µM [inhibitor, single point] | 
C(=C1c2ccccc2-c2ccccc21)c1ccccn1 | inconclusive: 35.5 µM [inhibitor, single point] | 
CCOC(=O)c1c(C)nc2sc3c(=O)n(-c4ccc(C(C)=O)cc4)cnc3c2c1-c1ccc(OC)cc1 |  | inactive: 7.86%
COc1ccc(S(=O)(=O)NCC2CCCN(C(=O)c3ccco3)C2)cc1 (centres undefined) |  | inactive: 2.01% [at 46.1 µM]
Cc1ccccc1CN1CCC(Oc2ccc(C(=O)N3CCCC3)cc2)CC1 |  | inactive: -23.9% [at 46.1 µM]
COc1ccc(-c2cc3nc(-c4ccc(Br)cc4)cc(C(F)(F)F)n3n2)cc1 |  | inactive: -8.48% [at 46.1 µM]
Cc1cc(OCC(=O)N(C)Cc2ccccc2)ccc1Cl |  | inactive: 24.2%
COCCN1C(=O)N(c2ccc(Cl)cc2)C(=O)C1CC(=O)Nc1cc(OC)cc(OC)c1 (centres undefined) |  | inactive: -6.26%
COc1ccc(NC(=O)/C(C#N)=C/c2ccc(Sc3nncn3C)c([N+](=O)[O-])c2)cc1 | inconclusive: 1.26 µM [inhibitor, single point] | 
CCCOc1nc2c(c(=O)n(C)c(=O)n2C)n1Cc1cccc2ccccc12 | inconclusive: 29.1 µM [inhibitor, single point] | 
COc1ccc(-c2[nH]ncc2N=Nc2ccccc2)cc1 | inconclusive: 7.94 µM [inhibitor, partial curve, poor fit] | 
CC(=O)N/N=C/C1=CCC2CC1C2(C)C (centres undefined) | inconclusive: 11.2 µM [activator, partial curve, poor fit] | 
CCc1ccc(CNc2ccc(N3CCN(C(C)=O)CC3)cc2)cc1 | inactive | 
COC(=O)CCCC1=CC2=CC(=O)C(C)(OC(=O)c3cccs3)C(=O)C2=CN1CCCCO (centres undefined) | inactive | 
C=CCNCC(O)COc1ccc(C(C)=O)cc1OC (centres undefined) |  | inactive: 0.106%
N#CC1=C(N)OC2=C(CCc3ccccc32)C1c1ccccc1Cl (centres undefined) | inconclusive: 1.84 µM [inhibitor, full curve, poor fit] | 
COC(=O)c1ccc2c(c1O)C(=O)c1ccccc1C2=O | inconclusive: 23.1 µM [inhibitor, single point] | 
N#Cc1nc(-c2ccco2)oc1N1CCN(c2ccccc2)CC1 |  | inactive: -17.7%
N#CCOc1ccccc1/C=C/c1nc2ccccc2c(=O)[nH]1 | inconclusive: 23.1 µM [inhibitor, single point] | 
COc1ccc(OC)c(NC(=O)c2ccccc2SC)c1 | inconclusive: 3.66 µM [inhibitor, single point] | 

Compound | Potency | activity change, negative = inhibition
Cc1ccc(SC(C)C(=O)N2CCN(c3ccccc3)CC2)cc1 (centres undefined) |  | inactive: 5.65% [at 46.1 µM]
Cc1ccc(S(=O)(=O)N(C)C)cc1NC(=O)c1ccc(OC(F)(F)F)cc1 |  | inactive: 7.94%
CN(NC1OC(=O)c2ccccc21)c1ncc(Cl)cc1C(F)(F)F (centres undefined) | inconclusive: 6.31 µM [activator, single point] | 
Nc1c(-c2ccccc2)cnn1-c1cccc(C(F)(F)F)c1 |  | inactive: 13.3%
O=C(COC(=O)/C=C/c1ccc(C(F)(F)F)cc1)NC(=O)NCc1ccco1 |  | inactive: 14.6%
Cc1cccc(C(=O)NCC(c2ccco2)N2CCc3ccccc32)c1 (centres undefined) | inconclusive: 35.5 µM [inhibitor, single point] | 
COc1ccc(C(=O)OCC(=O)NC(C)(C)C)cc1[N+](=O)[O-] |  | inactive: -1.85%
COc1ccc(/C=C2\N=C(c3ccccc3)N(c3ccc(C(=O)O)cc3)C2=O)cc1OC | inconclusive: 22.4 µM [inhibitor, partial curve, poor fit] | 
CCOC(=O)C1CCN(C(=O)c2ccc(CNS(=O)(=O)c3ccc(C)cc3)cc2)CC1 | inconclusive: 6.31 µM [activator, partial curve, poor fit] | 
COc1ccc(-c2cc(C(=O)Nc3ccc4c(c3)OCO4)no2)cc1OC | inconclusive: 3.16 µM [inhibitor, single point] | 
Cc1ccc(NS(=O)(=O)c2ccc(NC(=O)c3ccc(Br)o3)cc2)c(C)c1 | inconclusive: 5.62 µM [activator, single point] | 
CCCN1C(=O)c2ccccc2NC1c1ccc(Br)cc1 (centres undefined) | inconclusive: 1 µM [inhibitor, full curve, poor fit] | 
Cc1sc2nc(CN3CCCCC3)nc(Cl)c2c1C |  | inactive: -34.5%
Cc1ccc(C)c(SCc2nc3sc(C(=O)O)c(C)c3c(=O)[nH]2)c1 |  | inactive: 3.14% [at 46.1 µM]
O=C(c1cc(-c2ccc(Cl)cc2)on1)N(Cc1cccc(F)c1)Cc1ccco1 | inconclusive: 2.51 µM [inhibitor, full curve, poor fit] | 
C[C@H](Cc1ccc(O)c(O)c1)[C@@H](C)Cc1ccc(O)c(O)c1 | active: 14.1 µM | 
Cc1c(Cl)cccc1NC(=S)N1CCN(C(=O)c2ccco2)CC1 | inconclusive: 35.5 µM [inhibitor, single point] | 
O=C(CN(c1ccccc1)S(=O)(=O)c1ccccc1[N+](=O)[O-])Nc1ccccc1C(=O)N1CCOCC1 | inconclusive: 35.5 µM [inhibitor, single point] | 
Cc1nn(CC(=O)N2CCN(C)CC2)c(=O)c2ccccc12 |  | inactive: 21.3%
COc1ccccc1N(C)S(=O)(=O)c1ccc(C(=O)OCC(=O)NCCC2=CCCCC2)cc1 | inconclusive: 0.794 µM [inhibitor, single point] | 
O=C(/C=C1\NC2(CCCC2)Cc2ccccc21)C(=O)N/N=C/c1ccccc1O | active: 11.2 µM | 
C=CCn1c(SCC(=O)Nc2sccc2C(N)=O)nc2sc(C)c(C)c2c1=O | inconclusive: 7.3 µM [inhibitor, partial curve, poor fit] | 
COC(=O)C1Cc2c([nH]c3ccccc23)C2(CCN(Cc3ccccc3)CC2)N1 (centres undefined) | inconclusive: 7.08 µM [inhibitor, partial curve, poor fit] | 

Compound | Potency | activity change, negative = inhibition
COC(=O)CSc1ncccc1-c1nc2ccccc2[nH]1 | inconclusive: 0.231 µM [inhibitor, single point] | 
Cc1ccc(C(=O)N2CCN(Cc3ccc4c(c3)OCO4)CC2)cc1[N+](=O)[O-] | inconclusive: 15.8 µM [inhibitor, single point] | 
COc1ccc(/C(N)=N/OC(=O)c2ccco2)cc1OC | inconclusive: 35.5 µM [inhibitor, single point] | 
Cc1ccc(N2C(=O)C3C(c4ccccc4)(C2=O)C3(c2ccccc2)c2ccccc2)cc1 (centres undefined) | inconclusive: 6.51 µM [inhibitor, full curve, poor fit] | 
COc1cccc(CN2CCC(n3nccc3NC(=O)CCOc3ccccc3)CC2)c1O | inconclusive: 3.55 µM [inhibitor, single point] | 
CC(C)Nc1nc(Oc2cccc(Cl)c2Cl)cc(C(F)(F)F)n1 | inconclusive: 0.631 µM [inhibitor, full curve, poor fit] | 
CCOc1ccc(NC(=NCc2ccc3c(c2)OCO3)SC2CC(=O)N(c3ccccc3)C2=O)cc1 (centres undefined) | inconclusive: 16.4 µM [inhibitor, single point] | 
COc1ccccc1CNC(=O)CCCn1nc(C)c2sc3ccccc3c2c1=O |  | inactive: -4.22% [at 46.1 µM]
O=C(/C=C/c1ccc2c(c1)OCO2)Nc1nc(-c2ccccc2)cs1 | inconclusive: 35.5 µM [inhibitor, single point] | 
COc1cccc(NC(=O)C2CCCN(c3nnc(-n4c(C)ccc4C)s3)C2)c1 (centres undefined) |  | inactive: 3.07% [at 46.1 µM]
COc1ccc2nc(NC(=O)Nc3ccccc3OC)sc2c1 | inconclusive: 6.31 µM [inhibitor, full curve, poor fit] | 
COCc1nnc(NC(=O)c2ccc(S(=O)(=O)N3CCCc4ccccc43)cc2)o1 | inconclusive: 20 µM [inhibitor, partial curve, poor fit] | 
CN(C)/C=C1/Sc2ccccc2C1=O |  | inactive: 4.29%
Fc1ccc(-n2c(-c3cccs3)nc3nc4ccccc4nc32)cc1 |  | inactive: 25%
O=c1cc2[nH]c3ccccc3c(=O)n2nc1-c1ccccc1 | inconclusive: 0.112 µM [activator, full curve, poor fit] | 
Cc1ccccc1NC(=O)CSc1nnc(-c2ccccn2)o1 | inconclusive: 5.62 µM [activator, single point] | 
CCN(C(=O)c1cc2c(=O)n3cccc(C)c3nc2s1)c1ccc(C)c(C)c1 | inconclusive: 4.47 µM [inhibitor, single point] | 
N#Cc1ccc(CSc2nnc(NC(=O)c3ccc4ncsc4c3)s2)cc1 | inconclusive: 0.562 µM [inhibitor, full curve, poor fit] | 
O=C(c1cncc(Br)c1)N1CCc2ccccc2C1 | inconclusive: 35.5 µM [activator, partial curve, poor fit] | 
Cc1cc(C)nc(NS(=O)(=O)c2ccc(NC(=O)C3COc4ccccc4O3)cc2)n1 (centres undefined) |  | inactive: 5.15% [at 46.1 µM]
CCS(=O)(=O)N1CCC(C(=O)NCc2ccc(F)cc2Cl)CC1 | inconclusive: 3.26 µM [activator, full curve, poor fit] | 
COc1ccc(/C=C2\C(=O)NCC(=O)N2Cc2ccccc2)cc1 | inconclusive: 7.08 µM [inhibitor, partial curve] | 
Cc1cc(C)cc(N2C(=O)NC(=O)/C(=C/c3cccn3-c3ccc(Cl)cc3)C2=O)c1 | inconclusive: 20 µM [inhibitor, partial curve, poor fit] | 
